Laboratory results taken from PMC3840788, “The role of Cdc42 and Gic1 in the regulation of septin filament formation and dissociation” (eLife, 2013).
Results are given in words; binding and its absence hold for the method and conditions named.

Columns and labels:
[1] = target: T1, Cdc12 (subunit of the purified yeast septin complex) (yeast (S. cerevisiae)) (UniProt P32468); assay: negative-stain electron microscopy with single particle analysis; 0.3 µM septin hetero-oligomers, alone or with 1.5 µM Gic1, dialysed overnight at 4°C from high-salt buffer against low-salt buffer (100 mM NaCl, 20 mM Tris-HCl pH 7.5, 1 mM DTT); antibody labelling against Cdc11; adsorbed to a lipid monolayer; both purified
T1 sequence: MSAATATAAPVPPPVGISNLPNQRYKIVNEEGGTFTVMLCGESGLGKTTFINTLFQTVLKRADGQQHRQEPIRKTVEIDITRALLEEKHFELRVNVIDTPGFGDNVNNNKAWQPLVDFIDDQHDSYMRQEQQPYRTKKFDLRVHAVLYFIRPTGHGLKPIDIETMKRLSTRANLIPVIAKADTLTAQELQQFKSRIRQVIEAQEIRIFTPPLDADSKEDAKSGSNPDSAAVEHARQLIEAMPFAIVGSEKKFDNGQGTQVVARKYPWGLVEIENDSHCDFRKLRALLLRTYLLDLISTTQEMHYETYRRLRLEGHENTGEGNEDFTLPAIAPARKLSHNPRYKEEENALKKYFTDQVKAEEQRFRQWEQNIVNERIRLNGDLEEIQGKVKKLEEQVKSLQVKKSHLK

[2] = target: T2, septin-Cdc10Δ complex (Cdc3, Cdc11, Cdc12) (yeast (S. cerevisiae)) (UniProt P32457+P32458+P32468); assay: condition: 1.5 µM Gic1, 0.3 µM septin hetero-oligomers; negative-stain electron microscopy with single particle analysis; 0.3 µM septin hetero-oligomers, alone or with 1.5 µM Gic1, dialysed overnight at 4°C from high-salt buffer against low-salt buffer (100 mM NaCl, 20 mM Tris-HCl pH 7.5, 1 mM DTT); antibody labelling against Cdc11; adsorbed to a lipid monolayer; both purified
T2 sequence 1: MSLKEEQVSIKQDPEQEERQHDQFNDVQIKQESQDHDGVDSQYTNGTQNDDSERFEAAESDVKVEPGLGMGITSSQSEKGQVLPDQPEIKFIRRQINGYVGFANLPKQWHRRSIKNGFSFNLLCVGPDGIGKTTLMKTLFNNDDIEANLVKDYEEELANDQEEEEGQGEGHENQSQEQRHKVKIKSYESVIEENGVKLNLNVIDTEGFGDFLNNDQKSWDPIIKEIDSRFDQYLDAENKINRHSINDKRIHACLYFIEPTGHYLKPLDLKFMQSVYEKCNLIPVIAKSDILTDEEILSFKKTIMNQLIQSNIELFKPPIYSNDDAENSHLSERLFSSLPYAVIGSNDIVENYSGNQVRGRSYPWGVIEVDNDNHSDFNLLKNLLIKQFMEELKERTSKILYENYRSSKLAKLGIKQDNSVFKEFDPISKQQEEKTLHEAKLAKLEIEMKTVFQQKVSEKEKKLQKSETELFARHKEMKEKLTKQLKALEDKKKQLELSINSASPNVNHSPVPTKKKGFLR
T2 sequence 2: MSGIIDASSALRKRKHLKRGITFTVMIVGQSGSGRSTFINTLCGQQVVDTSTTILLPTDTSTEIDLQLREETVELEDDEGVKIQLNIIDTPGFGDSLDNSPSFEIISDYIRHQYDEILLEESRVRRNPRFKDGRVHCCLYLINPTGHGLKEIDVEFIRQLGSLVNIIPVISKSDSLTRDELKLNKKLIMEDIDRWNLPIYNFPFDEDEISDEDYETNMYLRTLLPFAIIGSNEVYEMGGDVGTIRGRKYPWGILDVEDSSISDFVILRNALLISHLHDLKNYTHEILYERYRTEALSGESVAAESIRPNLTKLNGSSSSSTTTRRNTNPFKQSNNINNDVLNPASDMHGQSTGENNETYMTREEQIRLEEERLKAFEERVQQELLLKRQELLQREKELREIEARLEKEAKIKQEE
T2 sequence 3: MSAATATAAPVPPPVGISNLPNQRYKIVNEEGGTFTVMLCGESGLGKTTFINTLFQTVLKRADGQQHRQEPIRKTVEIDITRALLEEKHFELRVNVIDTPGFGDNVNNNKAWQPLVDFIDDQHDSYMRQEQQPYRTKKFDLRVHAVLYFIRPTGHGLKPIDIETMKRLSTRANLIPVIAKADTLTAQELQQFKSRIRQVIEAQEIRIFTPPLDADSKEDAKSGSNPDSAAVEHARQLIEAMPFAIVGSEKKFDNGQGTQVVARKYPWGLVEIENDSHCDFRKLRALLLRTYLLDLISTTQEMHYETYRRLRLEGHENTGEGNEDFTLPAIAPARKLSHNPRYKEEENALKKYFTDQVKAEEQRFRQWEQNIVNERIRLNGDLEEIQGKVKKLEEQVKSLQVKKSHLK

B1: Gic1(104-314) (domain or fragment, yeast (S. cerevisiae), UniProt P38785 104-314, looked up)
chain: MFKKKDLLSRRHGSAKTAKQSSISTPFDFHHISHANGKREDNPLESHEEKHDVESLVKFTSLAPQPRPDSNVSSKYSNVVMNDSSRIVSSSTIATTMDSHHDGNETNNTPNGNKQLDSPTDLEMTLEDLRNYTFPSVLGDSVSEKTNPSSPSVSSFSGKFKPRELSALHTPELGNCFNVDQSLNSPGNRISVDDVLKFYYQCSETSTPRNT
notes: Gic1, yeast, residues 104-314 (N-terminal 103 amino acids deleted); gic1(310-942) in nucleotides; contains the CRIB domain and the C-terminus; Called simply Gic1 throughout the text; The methods say GST was cleaved with thrombin; Dimer by gel filtration; source: E. coli BL21 (DE3) Rosetta, purified (Ni-NTA, glutathione sepharose, Superdex S200)
With B1 the binding [1] was “no binding” and the binding [2] was “no binding”.
